From the supplement of paper PMC10849652
This is one part of the list.

Sequences of proteins named here, by UniProt entry; tags and fusion partners are left off. A change or cut given only in a name is not applied to a line headed by its entry.
UniProt Q86UE8, whole entry, looked up: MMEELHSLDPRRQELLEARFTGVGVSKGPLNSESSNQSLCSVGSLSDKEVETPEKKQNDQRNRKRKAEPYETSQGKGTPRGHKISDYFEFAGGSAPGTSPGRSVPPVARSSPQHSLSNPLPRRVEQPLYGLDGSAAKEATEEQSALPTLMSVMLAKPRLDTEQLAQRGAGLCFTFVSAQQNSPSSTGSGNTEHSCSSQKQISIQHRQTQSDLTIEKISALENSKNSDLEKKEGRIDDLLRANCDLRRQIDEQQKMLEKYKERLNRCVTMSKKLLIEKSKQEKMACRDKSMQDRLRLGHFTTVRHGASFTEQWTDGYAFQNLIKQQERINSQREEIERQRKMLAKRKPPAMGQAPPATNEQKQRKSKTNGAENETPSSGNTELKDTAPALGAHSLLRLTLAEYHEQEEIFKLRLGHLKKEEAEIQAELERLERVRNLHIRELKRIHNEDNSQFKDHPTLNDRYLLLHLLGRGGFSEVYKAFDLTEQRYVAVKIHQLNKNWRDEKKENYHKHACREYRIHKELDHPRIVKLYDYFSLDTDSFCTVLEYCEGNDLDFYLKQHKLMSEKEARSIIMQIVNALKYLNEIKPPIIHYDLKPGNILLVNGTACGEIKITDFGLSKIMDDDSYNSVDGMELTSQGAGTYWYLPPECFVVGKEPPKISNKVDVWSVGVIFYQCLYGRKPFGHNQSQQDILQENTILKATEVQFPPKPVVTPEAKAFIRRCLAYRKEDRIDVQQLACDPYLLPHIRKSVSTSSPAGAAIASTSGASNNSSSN
UniProt Q9BRN9: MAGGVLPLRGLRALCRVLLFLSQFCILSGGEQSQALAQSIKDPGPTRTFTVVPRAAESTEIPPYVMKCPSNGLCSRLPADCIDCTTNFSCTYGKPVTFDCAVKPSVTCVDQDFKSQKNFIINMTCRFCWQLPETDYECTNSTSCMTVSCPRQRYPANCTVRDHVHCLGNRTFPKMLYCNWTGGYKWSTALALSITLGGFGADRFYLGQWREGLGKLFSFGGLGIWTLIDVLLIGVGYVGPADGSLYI
UniProt Q9NVA4: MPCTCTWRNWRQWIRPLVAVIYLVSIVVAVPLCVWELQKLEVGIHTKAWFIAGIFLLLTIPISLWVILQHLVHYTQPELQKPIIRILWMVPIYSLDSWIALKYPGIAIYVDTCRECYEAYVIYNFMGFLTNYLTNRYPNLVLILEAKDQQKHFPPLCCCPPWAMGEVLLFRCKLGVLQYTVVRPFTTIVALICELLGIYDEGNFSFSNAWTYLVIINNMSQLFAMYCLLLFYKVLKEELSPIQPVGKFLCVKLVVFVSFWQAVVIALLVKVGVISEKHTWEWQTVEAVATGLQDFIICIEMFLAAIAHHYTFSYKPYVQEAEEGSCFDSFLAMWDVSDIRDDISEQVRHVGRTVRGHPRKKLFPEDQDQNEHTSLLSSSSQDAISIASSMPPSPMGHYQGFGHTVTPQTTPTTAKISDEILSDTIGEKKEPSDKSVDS
UniProt Q9H6X4: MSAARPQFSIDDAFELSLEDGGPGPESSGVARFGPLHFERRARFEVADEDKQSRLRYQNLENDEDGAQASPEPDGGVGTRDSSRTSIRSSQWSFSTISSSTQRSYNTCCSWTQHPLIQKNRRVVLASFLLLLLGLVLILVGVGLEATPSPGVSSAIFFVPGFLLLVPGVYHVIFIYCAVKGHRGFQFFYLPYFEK
UniProt Q9Y519: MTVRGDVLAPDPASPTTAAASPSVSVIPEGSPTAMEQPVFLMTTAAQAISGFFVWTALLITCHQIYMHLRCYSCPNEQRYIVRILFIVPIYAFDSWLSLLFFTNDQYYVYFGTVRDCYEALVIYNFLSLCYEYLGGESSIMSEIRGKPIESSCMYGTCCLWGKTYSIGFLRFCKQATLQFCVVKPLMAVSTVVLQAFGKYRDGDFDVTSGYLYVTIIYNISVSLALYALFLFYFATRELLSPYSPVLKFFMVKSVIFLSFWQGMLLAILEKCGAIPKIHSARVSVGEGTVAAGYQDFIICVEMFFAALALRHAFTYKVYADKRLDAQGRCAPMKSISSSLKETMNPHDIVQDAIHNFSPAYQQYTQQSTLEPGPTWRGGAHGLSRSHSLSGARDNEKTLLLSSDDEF
UniProt Q1AE95: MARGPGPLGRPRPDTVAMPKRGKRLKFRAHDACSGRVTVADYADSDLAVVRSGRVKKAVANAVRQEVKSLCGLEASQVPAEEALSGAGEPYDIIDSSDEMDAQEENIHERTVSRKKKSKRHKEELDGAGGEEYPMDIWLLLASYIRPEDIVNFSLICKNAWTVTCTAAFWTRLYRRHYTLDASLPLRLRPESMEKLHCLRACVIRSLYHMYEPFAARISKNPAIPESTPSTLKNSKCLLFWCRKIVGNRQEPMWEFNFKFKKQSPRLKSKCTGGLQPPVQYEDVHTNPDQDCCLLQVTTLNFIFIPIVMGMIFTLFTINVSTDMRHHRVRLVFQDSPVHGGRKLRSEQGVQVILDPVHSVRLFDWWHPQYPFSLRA
UniProt Q6P9G4: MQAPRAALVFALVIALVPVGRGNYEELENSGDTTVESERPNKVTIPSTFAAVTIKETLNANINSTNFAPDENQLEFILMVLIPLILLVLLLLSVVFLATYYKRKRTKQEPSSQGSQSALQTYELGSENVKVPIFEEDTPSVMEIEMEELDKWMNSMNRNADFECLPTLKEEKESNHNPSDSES
UniProt Q7Z6K1, whole entry, looked up: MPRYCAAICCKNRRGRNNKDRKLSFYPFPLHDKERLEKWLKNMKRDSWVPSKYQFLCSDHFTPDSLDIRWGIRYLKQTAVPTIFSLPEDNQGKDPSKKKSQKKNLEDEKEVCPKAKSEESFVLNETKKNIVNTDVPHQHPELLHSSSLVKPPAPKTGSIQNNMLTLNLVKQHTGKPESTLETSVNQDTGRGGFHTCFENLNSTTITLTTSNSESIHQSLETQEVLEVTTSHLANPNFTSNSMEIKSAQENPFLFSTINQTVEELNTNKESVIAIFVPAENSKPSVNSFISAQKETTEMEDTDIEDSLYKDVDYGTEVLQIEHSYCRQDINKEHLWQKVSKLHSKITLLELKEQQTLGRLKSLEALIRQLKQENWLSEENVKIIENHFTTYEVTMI
UniProt P37173, whole entry, looked up: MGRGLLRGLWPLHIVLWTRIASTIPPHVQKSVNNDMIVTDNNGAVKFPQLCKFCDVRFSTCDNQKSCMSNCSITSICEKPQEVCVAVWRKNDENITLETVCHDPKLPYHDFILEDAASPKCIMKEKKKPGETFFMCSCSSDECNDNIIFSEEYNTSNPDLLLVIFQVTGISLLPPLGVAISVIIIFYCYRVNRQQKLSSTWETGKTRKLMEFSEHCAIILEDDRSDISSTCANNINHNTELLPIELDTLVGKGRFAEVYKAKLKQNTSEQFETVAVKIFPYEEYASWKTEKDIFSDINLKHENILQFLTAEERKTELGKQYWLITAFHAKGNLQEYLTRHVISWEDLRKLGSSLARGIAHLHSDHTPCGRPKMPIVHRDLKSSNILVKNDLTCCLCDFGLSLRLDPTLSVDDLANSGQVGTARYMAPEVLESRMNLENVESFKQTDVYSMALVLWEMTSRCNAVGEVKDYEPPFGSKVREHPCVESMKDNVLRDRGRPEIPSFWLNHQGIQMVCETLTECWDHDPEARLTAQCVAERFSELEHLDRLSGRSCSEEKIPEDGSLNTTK
UniProt Q8WTV1: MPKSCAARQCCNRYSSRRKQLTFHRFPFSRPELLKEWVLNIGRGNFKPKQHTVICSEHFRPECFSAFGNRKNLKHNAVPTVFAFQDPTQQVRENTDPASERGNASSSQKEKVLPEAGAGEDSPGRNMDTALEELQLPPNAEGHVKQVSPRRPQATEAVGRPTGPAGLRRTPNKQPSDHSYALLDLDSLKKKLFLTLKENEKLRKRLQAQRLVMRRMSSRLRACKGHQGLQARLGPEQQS
UniProt Q9NQ88: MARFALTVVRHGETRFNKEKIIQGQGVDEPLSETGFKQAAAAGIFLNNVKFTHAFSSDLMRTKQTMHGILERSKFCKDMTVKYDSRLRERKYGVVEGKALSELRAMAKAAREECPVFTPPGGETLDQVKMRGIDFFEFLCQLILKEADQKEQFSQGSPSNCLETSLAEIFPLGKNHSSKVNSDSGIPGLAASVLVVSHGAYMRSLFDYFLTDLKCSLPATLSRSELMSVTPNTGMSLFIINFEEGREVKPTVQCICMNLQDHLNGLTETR
UniProt Q8IUC6, whole entry, looked up: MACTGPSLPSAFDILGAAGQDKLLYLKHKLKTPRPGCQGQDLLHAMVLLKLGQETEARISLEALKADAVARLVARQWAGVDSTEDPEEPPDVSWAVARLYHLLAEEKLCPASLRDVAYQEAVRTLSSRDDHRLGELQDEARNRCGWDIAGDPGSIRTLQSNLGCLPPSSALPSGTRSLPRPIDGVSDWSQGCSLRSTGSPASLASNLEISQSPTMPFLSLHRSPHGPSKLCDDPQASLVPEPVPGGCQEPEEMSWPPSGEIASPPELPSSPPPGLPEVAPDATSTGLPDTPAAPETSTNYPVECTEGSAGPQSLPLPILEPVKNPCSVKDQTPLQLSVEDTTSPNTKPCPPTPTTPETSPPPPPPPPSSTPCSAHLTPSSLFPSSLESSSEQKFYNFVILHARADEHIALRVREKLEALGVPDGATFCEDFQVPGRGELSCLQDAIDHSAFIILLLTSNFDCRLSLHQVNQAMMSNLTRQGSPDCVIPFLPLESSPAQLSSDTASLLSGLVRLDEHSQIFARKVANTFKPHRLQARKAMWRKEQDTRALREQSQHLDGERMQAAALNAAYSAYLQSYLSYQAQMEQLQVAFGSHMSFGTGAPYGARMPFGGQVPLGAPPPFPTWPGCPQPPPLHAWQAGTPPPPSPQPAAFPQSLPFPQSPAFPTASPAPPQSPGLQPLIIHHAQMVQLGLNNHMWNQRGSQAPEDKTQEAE
UniProt Q96CG3: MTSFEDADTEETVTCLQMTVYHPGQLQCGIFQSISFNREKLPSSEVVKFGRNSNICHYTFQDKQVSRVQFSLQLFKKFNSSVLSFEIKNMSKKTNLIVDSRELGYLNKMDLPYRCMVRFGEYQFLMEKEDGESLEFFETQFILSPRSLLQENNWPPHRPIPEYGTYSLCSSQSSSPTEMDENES
UniProt Q9NPI0: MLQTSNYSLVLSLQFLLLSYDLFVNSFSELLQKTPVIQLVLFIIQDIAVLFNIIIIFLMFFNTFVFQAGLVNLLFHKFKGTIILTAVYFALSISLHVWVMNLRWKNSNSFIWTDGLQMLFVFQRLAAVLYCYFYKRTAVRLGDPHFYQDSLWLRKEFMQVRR
UniProt Q04726: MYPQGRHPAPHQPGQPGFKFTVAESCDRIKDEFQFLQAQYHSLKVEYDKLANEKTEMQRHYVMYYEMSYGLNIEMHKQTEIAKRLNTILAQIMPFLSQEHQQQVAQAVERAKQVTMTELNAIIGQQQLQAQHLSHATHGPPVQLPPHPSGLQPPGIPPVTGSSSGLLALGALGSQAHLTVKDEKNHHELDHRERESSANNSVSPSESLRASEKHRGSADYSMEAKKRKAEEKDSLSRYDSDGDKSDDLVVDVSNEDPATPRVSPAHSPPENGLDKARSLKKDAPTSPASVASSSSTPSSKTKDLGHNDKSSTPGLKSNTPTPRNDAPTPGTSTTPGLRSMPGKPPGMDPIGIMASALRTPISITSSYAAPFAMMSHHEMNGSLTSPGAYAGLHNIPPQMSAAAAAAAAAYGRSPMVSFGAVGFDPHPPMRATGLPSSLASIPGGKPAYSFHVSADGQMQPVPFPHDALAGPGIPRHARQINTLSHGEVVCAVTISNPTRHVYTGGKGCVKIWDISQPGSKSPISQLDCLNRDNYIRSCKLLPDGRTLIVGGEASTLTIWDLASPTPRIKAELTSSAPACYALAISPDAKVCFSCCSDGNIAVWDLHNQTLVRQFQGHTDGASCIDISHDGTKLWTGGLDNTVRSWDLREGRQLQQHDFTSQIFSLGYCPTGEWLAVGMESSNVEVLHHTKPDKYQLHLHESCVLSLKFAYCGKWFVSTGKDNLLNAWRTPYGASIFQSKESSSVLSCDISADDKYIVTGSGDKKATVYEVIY
UniProt Q96B96: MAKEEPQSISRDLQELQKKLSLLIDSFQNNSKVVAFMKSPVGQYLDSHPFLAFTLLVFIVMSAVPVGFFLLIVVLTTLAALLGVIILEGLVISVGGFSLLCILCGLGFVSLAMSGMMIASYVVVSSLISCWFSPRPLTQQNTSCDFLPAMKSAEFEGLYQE
UniProt Q9Y3Q3: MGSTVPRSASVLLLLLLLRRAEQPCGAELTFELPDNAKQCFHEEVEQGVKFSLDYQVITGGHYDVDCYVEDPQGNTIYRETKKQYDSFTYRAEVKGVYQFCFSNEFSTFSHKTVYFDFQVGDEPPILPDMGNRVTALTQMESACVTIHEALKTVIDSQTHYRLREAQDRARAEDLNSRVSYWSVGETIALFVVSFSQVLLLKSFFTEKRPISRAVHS
UniProt Q96IK0: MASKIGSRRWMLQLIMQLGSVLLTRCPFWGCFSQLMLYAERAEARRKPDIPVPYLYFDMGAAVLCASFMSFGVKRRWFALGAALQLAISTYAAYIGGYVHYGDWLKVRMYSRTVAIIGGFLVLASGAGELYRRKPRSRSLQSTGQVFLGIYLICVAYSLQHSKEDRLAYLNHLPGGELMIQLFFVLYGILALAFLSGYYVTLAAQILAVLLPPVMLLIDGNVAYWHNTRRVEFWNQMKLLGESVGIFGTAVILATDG

Assays:
Experiment in all cases: log2 fold change, soluble protein after heating vs DMSO (PISA); higher = thermal stabilisation; K562 lysate, 10 uM; active = over 0.2 and 3.5 SD of the protein, either way, in both replicates (recomputed)
[1] = compound: CN1CCN(CCOc2cc(OC3CCOCC3)c3c(Nc4c(Cl)ccc5c4OCO5)ncnc3c2)CC1 [saracatinib]
Summary of the method: (§1)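 K562 pellets were dounce-homogenised in PBS pH 7.4 with 1 mM MgCl2, and the crude extract at 1 mg/mL protein was treated with 10 μM compound for 30 min. Aliquots were heated for 3 min across 48°C-58°C, pooled, and brought to 0.5% NP-40 at 4°C; soluble protein was the supernatant after 21,000xg for 90 min. Soluble protein was quantified by TMTpro 16plex LC-MS/MS with channel sums equalised, and reported as log2 fold change in thermal stability against DMSO controls, with values from duplicates.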

[2] = compound: CCn1cc(-c2ccnc3[nH]c(-c4cccc(CN(C)C)c4)cc23)c(-c2ccc(NC(=O)N(C)C)cc2)n1
Summary of the method: as §1

[3] = compound: CN1CCC(CNc2ccc3ncc(-c4cccc(OC(F)(F)F)c4)n3n2)CC1
Summary of the method: as §1

[4] = compound: CN1CCN(c2nc(C3=C(c4c[nH]c5ccccc45)C(=O)NC3=O)c3ccccc3n2)CC1 [sotrastaurin]
Summary of the method: as §1

[5] = compound: CCCS(=O)(=O)Nc1ccc(F)c(C(=O)c2c[nH]c3ncc(-c4ccc(Cl)cc4)cc23)c1F [vemurafenib]
Summary of the method: as §1

[6] = compound: CC[C@@H]1C(=O)N(C)c2cnc(Nc3ccc(C(=O)NC4CCN(C)CC4)cc3OC)nc2N1C1CCCC1
Summary of the method: as §1

[7] = compound: CCN(CCCOc1ccc2c(Nc3cc(CC(=O)Nc4cccc(F)c4)[nH]n3)ncnc2c1)CCOP(=O)(O)O [barasertib]
Summary of the method: as §1

[8] = compound: CCn1c(C(=O)N(C2CC2)C2CC2)cc2c3c(ncn3C)c(Nc3cc(C)n(C)n3)nc21
Summary of the method: as §1

[9] = compound: CCCS(=O)(=O)Nc1ccc(F)c(C(=O)c2c[nH]c3ncc(Cl)cc23)c1F
Summary of the method: as §1

[10] = compound: CC[C@@H]1C(=O)N(C)c2cnc(Nc3ccc(C(=O)N[C@H]4CC[C@H](N5CCN(CC6CC6)CC5)CC4)cc3OC)nc2N1C(C)C [volasertib]
Summary of the method: as §1

TICRR (UniProt Q7Z2Z1)
log2 fold change [1]: inactive: 0

TM7SF2 (UniProt O76062)
log2 fold change [2]: inactive: 0.02
log2 fold change [3]: inactive: 0.051
log2 fold change [4]: inactive: 0.31

TJP1 (UniProt H0Y3R8)
log2 fold change [2]: inactive: 0.048
log2 fold change [3]: inactive: -0.16

TLK2 isoform 3 (UniProt Q86UE8)
log2 fold change [2]: inactive: 0.104
log2 fold change [3]: inactive: -0.036

TMCC1 (UniProt O94876)
log2 fold change [5]: inactive: 0.048
log2 fold change [6]: inactive: 0.199
log2 fold change [2]: inactive: -0.103
log2 fold change [3]: inactive: 0.081
log2 fold change [1]: inactive: 0.075

TM2D3 (UniProt Q9BRN9)
log2 fold change [7]: inactive: -0.105
log2 fold change [6]: inactive: -0.079
log2 fold change [8]: inactive: 0.199
log2 fold change [2]: active: -0.934
log2 fold change [3]: inactive: 0.444

TMEM184C (UniProt Q9NVA4)
log2 fold change [9]: inactive: -0.008
log2 fold change [7]: inactive: -0.19
log2 fold change [6]: inactive: 0.02
log2 fold change [10]: inactive: 0.02
log2 fold change [8]: inactive: -0.062
log2 fold change [1]: inactive: 0.043
log2 fold change [4]: inactive: 0.006

TMEM134 (UniProt Q9H6X4)
log2 fold change [9]: inactive: 0.08
log2 fold change [10]: inactive: 0
log2 fold change [8]: inactive: -0.039
log2 fold change [2]: inactive: 0.048
log2 fold change [3]: inactive: 0.061
log2 fold change [1]: inactive: 0.099
log2 fold change [4]: inactive: -0.055

TMEM184B (UniProt Q9Y519)
log2 fold change [8]: inactive: -0.006
log2 fold change [1]: inactive: 0.018
log2 fold change [4]: inactive: 0.018

TMEM183B (UniProt Q1AE95)
log2 fold change [5]: inactive: 0.297
log2 fold change [8]: inactive: 0.06
log2 fold change [2]: inactive: -0.46
log2 fold change [3]: inactive: -0.031

TMEM102 (UniProt Q8N9M5)
log2 fold change [5]: inactive: -0.013
log2 fold change [6]: inactive: -0.055
log2 fold change [8]: inactive: -0.04
log2 fold change [4]: inactive: 0.097

TMEM154 (UniProt Q6P9G4)
log2 fold change [6]: inactive: 0.022
log2 fold change [8]: inactive: -0.08
log2 fold change [1]: inactive: -0.036
log2 fold change [4]: inactive: 0.116

THAP5 (UniProt Q7Z6K1)
log2 fold change [1]: inactive: 0.166

THOC2 (UniProt H0Y7U4)
log2 fold change [9]: inactive: 0.061
log2 fold change [7]: inactive: -0.073
log2 fold change [10]: inactive: -0.038
log2 fold change [8]: inactive: 0.123
log2 fold change [1]: inactive: 0.02
log2 fold change [4]: inactive: -0.202

TGFBR2 isoform 2 (UniProt P37173)
log2 fold change [6]: inactive: -0.159
log2 fold change [8]: inactive: 0.007
log2 fold change [1]: inactive: 0.086

THAP3 (UniProt Q8WTV1)
log2 fold change [8]: inactive: 0.035
log2 fold change [4]: inactive: -0.036

TIGAR (UniProt Q9NQ88)
log2 fold change [5]: inactive: -0.04
log2 fold change [6]: inactive: 0.073
log2 fold change [8]: inactive: -0.029
log2 fold change [1]: inactive: -0.011
log2 fold change [4]: inactive: 0.014

TMC7 (UniProt Q7Z402)
log2 fold change [2]: inactive: -0.021
log2 fold change [3]: inactive: 0.06

TICAM1 (UniProt Q8IUC6)
log2 fold change [9]: inactive: 0.031
log2 fold change [7]: inactive: -0.124
log2 fold change [10]: inactive: -0.022
log2 fold change [8]: inactive: -0.072
log2 fold change [2]: inactive: -0.173
log2 fold change [3]: inactive: 0.149
log2 fold change [1]: inactive: 0.003
log2 fold change [4]: inactive: 0.036

TIFA (UniProt Q96CG3)
log2 fold change [6]: inactive: -0.007
log2 fold change [8]: inactive: -0.049
log2 fold change [2]: inactive: -0.08
log2 fold change [3]: inactive: 0.086
log2 fold change [4]: inactive: 0.08

THBS1 (UniProt P07996)
log2 fold change [5]: inactive: -0.079
log2 fold change [2]: inactive: -0.014
log2 fold change [3]: inactive: -0.162
log2 fold change [1]: inactive: -0.052
log2 fold change [4]: inactive: 0.02

TLE3 (UniProt H0YL70)
log2 fold change [1]: inactive: 0.152

TMEM138 (UniProt Q9NPI0)
log2 fold change [5]: inactive: 0.048
log2 fold change [6]: inactive: -0.022
log2 fold change [1]: inactive: 0.033

TKTL1 (UniProt P51854)
log2 fold change [6]: inactive: 0.054
log2 fold change [2]: inactive: 0.192
log2 fold change [3]: inactive: -0.021
log2 fold change [1]: inactive: -0.027

TGM2 (UniProt A2A299)
log2 fold change [9]: inactive: 0.051
log2 fold change [10]: inactive: -0.114

TGFBR1 isoform 2 (UniProt P36897)
log2 fold change [6]: inactive: -0.005
log2 fold change [1]: active: 1.04

TMEM106C (UniProt Q9BVX2)
log2 fold change [7]: inactive: 0.196
log2 fold change [6]: inactive: 0.015

TLE3 isoform 5 (UniProt Q04726)
log2 fold change [9]: inactive: 0.037
log2 fold change [7]: inactive: -0.176
log2 fold change [6]: inactive: 0.026
log2 fold change [10]: inactive: -0.025
log2 fold change [8]: inactive: 0.034
log2 fold change [2]: inactive: 0.101
log2 fold change [3]: inactive: 0.178
log2 fold change [1]: inactive: 0.049
log2 fold change [4]: inactive: 0.015

THAP4 (UniProt Q8WY91)
log2 fold change [2]: inactive: -0.207
log2 fold change [3]: inactive: -0.004

TMEM147 (UniProt Q9BVK8)
log2 fold change [9]: inactive: 0.069
log2 fold change [7]: inactive: 0.003
log2 fold change [6]: inactive: -0.094
log2 fold change [10]: inactive: -0.044
log2 fold change [8]: inactive: 0.028
log2 fold change [2]: inactive: -0.125
log2 fold change [3]: inactive: 0.04
log2 fold change [4]: inactive: 0.019

TMEM159 isoform 2 (UniProt Q96B96)
log2 fold change [9]: inactive: 0.061
log2 fold change [7]: inactive: 0.035
log2 fold change [6]: inactive: 0.027
log2 fold change [10]: inactive: 0.089
log2 fold change [8]: inactive: 0.085
log2 fold change [2]: inactive: -0.024
log2 fold change [3]: inactive: -0.064
log2 fold change [1]: inactive: 0.178
log2 fold change [4]: inactive: 0.02

TMEM132A isoform 2 (UniProt Q24JP5)
log2 fold change [9]: inactive: 0.239
log2 fold change [6]: inactive: -0.078
log2 fold change [10]: inactive: -0.144
log2 fold change [8]: inactive: 0.028
log2 fold change [2]: inactive: 0.055
log2 fold change [3]: inactive: 0.3
log2 fold change [4]: inactive: 0.044

TMEM175 (UniProt Q9BSA9)
log2 fold change [7]: inactive: 0.057
log2 fold change [8]: inactive: -0.085
log2 fold change [2]: inactive: -0.035
log2 fold change [3]: inactive: 0.07
log2 fold change [4]: inactive: -0.145

TMEM131 (UniProt Q92545)
log2 fold change [2]: inactive: 0.115
log2 fold change [3]: inactive: 0.04

TKT, A0A0B4J1R6
log2 fold change [9]: inactive: -0.032
log2 fold change [10]: inactive: 0.033
log2 fold change [8]: inactive: -0.111
log2 fold change [2]: inactive: -0.276
log2 fold change [3]: inactive: 0.344
log2 fold change [1]: inactive: 0.067
log2 fold change [4]: inactive: 0.183

TGIF1 (UniProt Q15583)
log2 fold change [4]: inactive: 0.054

TMEM129
log2 fold change [2]: inactive: 0.004
log2 fold change [3]: inactive: 0.006

TMED3 (UniProt Q9Y3Q3)
log2 fold change [9]: inactive: -0.007
log2 fold change [7]: inactive: -0.232
log2 fold change [10]: inactive: -0.035
log2 fold change [8]: inactive: 0.098
log2 fold change [2]: inactive: -0.041
log2 fold change [3]: inactive: -0.071
log2 fold change [4]: inactive: 0.05

TMEM101 (UniProt Q96IK0)
log2 fold change [9]: inactive: -0.069
log2 fold change [7]: inactive: 0.019
log2 fold change [6]: inactive: 0.024
log2 fold change [10]: inactive: -0.046
log2 fold change [8]: inactive: -0.029
log2 fold change [2]: inactive: -0.063
log2 fold change [3]: inactive: -0.066
log2 fold change [1]: inactive: 0.033
log2 fold change [4]: inactive: -0.107
